The assay can be described thus: qHTS Assay for Lipid Storage Modulators in Drosophila S3 Cells.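 As to cell number change: cells counted by Cell Tracker Red CMTPX staining in the red channel.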 As to conditions: BODIPY lipid droplet fluorescence, 18-24 h; for cell number change: measured here: cell count max response, cells fed with added oleic acid. In outline: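 Laser-scanning cytometry quantifies lipid droplet accumulation (500–530 nm total intensity; droplet/cell object ratio) in oleic acid-fed (400 uM added) Drosophila S3 cells treated with a concentration series. 20 uM Triacsin C defined 100% inhibition.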
On the technique in general: In qHTS, concentration-response curves come from the screen itself.

Setting [1] is: measured here: lipid fluorescence (Fed channel) AC50, cells fed with added oleic acid.
The mark [2] stands for this setting: measured here: cell number channel AC50, cells fed with added oleic acid.

The other results are listed elsewhere or left out. These are further read-outs of the screen, such as a control signal, another cell line or another target. No call is given for them. The list favours compounds with an active or inconclusive main result. The note in brackets gives the kind of curve behind each potency; many fits are weak.

The term AC50 denotes the concentration at which the activity in the assay is half-maximal.

Turning to `CCNC(=O)C12CCC(C)(C(=O)O1)C2(C)C` (stereo unspecified), the cell number change turned out to be 9.01%. Further, the half-maximal activity concentration (AC50) under setting [1] is 0.651 µM [falling, single point].
For `CCn1cc(S(=O)(=O)N2CCc3ccccc3C2)cn1`, the cell number change was 24.6%.
Same read-out and setting: as for `COc1cccc(N(CC(=O)NC2CCCCC2)C(=O)c2snc(C(N)=O)c2N)c1`, the figure is 6.96%; as for `O=C(Cn1cnc2ccccc2c1=O)Nc1cccc(S(=O)(=O)N2CCCCC2)c1`, -5.73%.
As to `CCOC(=O)c1nn(-c2ccccc2)c(=O)cc1OCC(=O)Nc1cc(C)ccc1C`, the cell number change is -75%. In addition, the concentration at half-maximal activity (AC50) under setting [2] is 9.2 µM [falling, partial curve, poor fit]. Besides, the AC50 under setting [1] is 0.00651 µM [falling, full curve, poor fit].
Take `COc1ccc(-n2c(C)c(C)c3c(N)ncnc32)cc1`: the cell number change is -9.27%.
For `Cn1c(SCC(=O)c2ccccc2)nc2cccnc21`, the cell number change was -30%. Further, the AC50 under setting [2] was 0.103 µM [falling, full curve, poor fit]. Further, the half-maximal activity concentration (AC50) under setting [1] was 29.1 µM [falling, single point].
For `Cc1cccc(/C=N/NC(=O)Cn2nc(C)cc2C)n1`, the cell number change is -27.8%. Besides, the AC50 under setting [2] is 0.00461 µM [falling, full curve, poor fit].
Take `O=c1[nH]c(CN2CCN(S(=O)(=O)c3ccc4ccccc4c3)CC2)nc2ccccc12`: the cell number change was -13.5%. The concentration at half-maximal activity (AC50) under setting [1] is 0.731 µM [falling, full curve].
As to `Cc1ccc(-n2ccc(=O)c(C(=O)Nc3ccc(S(=O)(=O)N4CCOCC4)cc3)n2)cc1`, the concentration at half-maximal activity (AC50) under setting [1] is 2.06 µM [rising, full curve, poor fit].
Take `COC(=O)c1ccc(NC(=S)N2CCN(Cc3ccccc3)CC2)cc1`: the cell number change was -10.7%. The AC50 under setting [1] was 2.31 µM [rising, full curve, poor fit].
As to `Cc1csc(NC(=O)Nc2ccc(Cl)cc2)n1`, the cell number change is -17.4%. The half-maximal activity concentration (AC50) under setting [1] is 29.1 µM [falling, single point].
With `CCc1cc2c(=O)nc3n(c2s1)Cc1ccccc1/C3=C(/O)c1cccc([N+](=O)[O-])c1`, the cell number change is -1.95%.
As for `O=C(CCCN1C(=O)/C(=C/c2cccc(Br)c2)SC1=S)Nc1ccccn1`, the AC50 under setting [2] is 6.51 µM [rising, single point].
Regarding `Cc1nc(NC(C)c2ccccc2)c2c3c(sc2n1)CCC3` (stereo unspecified), the cell number change was 23.9%. Besides, under setting [2], the AC50 was 0.411 µM [rising, single point]. For the same molecule, the AC50 under setting [1] is 2.06 µM [rising, partial curve].
Consider `O=C(O)CC(NC(=O)/C(=C/c1ccccc1)NC(=O)c1ccccc1)c1ccccc1` (stereo unspecified), for which the cell number change was -4.48%. Also, under setting [1], the AC50 was 29.1 µM [rising, single point].
As to `CC(C)c1ccc(NC(=O)COC(=O)CCC(=O)c2cccs2)cc1`, the cell number change came out at 16.5%. Further, the AC50 under setting [1] is 0.259 µM [rising, partial curve, poor fit].
Turning to `O=C(c1cc2c(=O)n3ccccc3nc2s1)N1CCc2ccccc2C1`, the cell number change is 51.2%. Moreover, the AC50 under setting [2] was 29.1 µM [rising, single point]. Further, under setting [1], the AC50 is 6.51 µM [falling, single point].
Consider `CC(C)CCN1C(Nc2ccccc2)=NC[C@@H]1C`, for which the cell number change was 26.3%. The half-maximal activity concentration (AC50) under setting [1] was 29.1 µM [rising, partial curve, poor fit].
As for `CCN(CC)CCOC(=O)c1ccc(NC(=O)/C=C/c2cccs2)cc1`, the cell number change is -10.8%. Also, the concentration at half-maximal activity (AC50) under setting [1] is 32.6 µM [rising, single point].
Consider `CC1CCCC(C)N1CCNC(=O)Cn1nc(-c2ccccc2)ccc1=O` (stereo unspecified), for which the cell number change came out at 42.6%. The AC50 under setting [2] was 4.61 µM [falling, partial curve, poor fit]. Moreover, the concentration at half-maximal activity (AC50) under setting [1] is 6.51 µM [falling, partial curve, poor fit].
`O=c1c(/C=N/O)coc2ccc3ccccc3c12`: the cell number change came out at 40%. Under setting [2], the AC50 is 6.51 µM [rising, partial curve]. For the same molecule, the AC50 under setting [1] was 16.4 µM [rising, partial curve].
With `Cc1cccc(N(CC(=O)NC2CCCC2)C(=O)c2nsc(Cl)c2Cl)c1C`, the cell number change is -29%. The AC50 under setting [1] was 13 µM [falling, partial curve].
Regarding `O=C(COc1ccccc1Cl)NC(=O)NC1CCCCC1`, the cell number change is 62.6%. Further, the AC50 under setting [2] was 18.4 µM [rising, partial curve].
For `Nc1ccc2nc(-c3cccc(-c4nc5ccc(N)cc5[nH]4)c3)[nH]c2c1`, the cell number change is -9.91%. For the same molecule, the AC50 under setting [1] was 29.1 µM [rising, single point].
As to `CSCC[C@H](NC(=O)[C@H](Cc1ccccc1)n1c(=O)[nH]c2ccccc2c1=O)C(=O)N1CCC(C(=O)O)CC1`, the cell number change was 5.5%. The half-maximal activity concentration (AC50) under setting [1] is 0.13 µM [rising, full curve, poor fit].
Take `CCCCn1c(NCc2ccncc2)nc2ccccc21`: the cell number change came to 38.8%.
With `CCc1ccccc1Nc1nn2c(=O)c3ccc(C(=O)NCc4ccccn4)cc3nc2s1`, the cell number change is -36.1%. The AC50 under setting [2] is 2.31 µM [falling, full curve]. The AC50 under setting [1] is 6.51 µM [falling, single point].
Take `CSc1cccc(NC(=S)NC(=O)CCc2ccccc2)c1`: the cell number change is 45.7%. Moreover, the AC50 under setting [2] was 2.31 µM [rising, full curve]. The half-maximal activity concentration (AC50) under setting [1] was 2.91 µM [rising, full curve].
Take `CCN(CC(=O)Nc1ccc2c(c1)OCCO2)C(=O)c1cccc(S(=O)(=O)N2CCOCC2)c1`: the cell number change was 8.28%.
On to `CNC(=O)CN1C(=O)COc2ccc(S(=O)(=O)N3CCCCCC3)cc21`, for which the cell number change is -2.28%. In addition, under setting [1], the AC50 is 6.51 µM [falling, single point].
In the case of `O=C(CCn1c(=S)[nH]c2ccccc2c1=O)NCC1CCCO1` (stereo unspecified), the AC50 reads like this: under setting [2], 0.731 µM [falling, full curve, poor fit]; under setting [1], 6.51 µM [falling, single point].
Take `CCOC(=O)N1CCN(Cc2nc3c(c(=O)[nH]c(=O)n3C)n2Cc2ccccc2C)CC1`: the cell number change was -5.4%.
For `Clc1cccc(CNc2nc(-c3cccnc3)nc3ccccc23)c1`, the cell number change amounted to 6.05%. Besides, under setting [1], the concentration at half-maximal activity (AC50) was 3.26 µM [rising, single point].
In the case of `COc1ccc(NC(=O)CSc2nnc(Cc3ccccc3)c(=O)n2N)cc1OC`, the cell number change came to 19.7%. Further, under setting [1], the AC50 is 1.46 µM [rising, full curve, poor fit].
Consider `N#Cc1nc(-c2cccc(Cl)c2)oc1NCc1cccnc1`, for which the cell number change was found to be 33.6%. The AC50 under setting [2] is 13 µM [rising, single point].
On to `O=C(NNC(=O)C1CC=CCC1C(=O)O)c1ccc(Cl)cc1` (stereo unspecified), for which the cell number change came to 4.19%. For the same molecule, under setting [2], the concentration at half-maximal activity (AC50) is 3.66 µM [falling, single point]. Besides, the concentration at half-maximal activity (AC50) under setting [1] is 2.31 µM [falling, partial curve].
Turning to `COc1ccc(C(=O)N2CCCC(CNC(=O)c3ccc(F)cc3)C2)cc1OC` (stereo unspecified), the cell number change is 6.08%. In addition, under setting [1], the half-maximal activity concentration (AC50) was 29.1 µM [rising, single point].
Turning to `O=C1c2ccccc2C(Nc2ccc3nc(-c4cccnc4)[nH]c3c2)N1Cc1ccco1` (stereo unspecified), the cell number change worked out at 2.72%. Further, the AC50 under setting [1] was 0.731 µM [rising, full curve, poor fit].
Consider `COc1cc(NC(=O)C2CCN(S(=O)(=O)c3ccc4[nH]c(=O)oc4c3)CC2)cc(OC)c1`, for which, under setting [1], the AC50 is 0.259 µM [rising, partial curve, poor fit].
Consider `CCOC(=O)N1CCN(C(=O)COCc2cc(-c3ccc4c(c3)OCO4)on2)CC1`, for which the cell number change came to 21.8%. Moreover, the AC50 under setting [1] is 23.1 µM [rising, single point].
On to `CCCC(NS(=O)(=O)c1ccc(OC)cc1)C(=O)O` (stereo unspecified), for which the cell number change was -2.5%. Besides, the AC50 under setting [1] was 6.51 µM [falling, single point].
With `COc1cc(SC#N)ccc1N=Cc1c(C)[nH]n(-c2ccc(C)c(C)c2)c1=O`, the cell number change was -88.2%. Besides, under setting [2], the AC50 was 18.4 µM [falling, partial curve]. For the same molecule, the half-maximal activity concentration (AC50) under setting [1] was 23.1 µM [falling, single point].
On to `CN(Cc1ccon1)C(=O)C1CCC(=O)N(CCc2ccc(Cl)cc2)C1` (stereo unspecified), for which the cell number change was 16.5%.
On to `Cc1onc(-c2ccccc2)c1-c1n[nH]c(=S)n1-c1ccc(C(=O)O)cc1`, for which the cell number change worked out at 4.2%. In addition, the AC50 under setting [1] is 23.1 µM [falling, partial curve].
For `CC(C)Oc1ccc(CN2CCCC(CO)(Cc3ccccc3)C2)cc1CO` (stereo unspecified), the cell number change turned out to be 6.2%. The AC50 under setting [2] was 4.61 µM [rising, partial curve, poor fit].
Consider `Cc1ccc(C2=NN(C(=O)CSc3nc4ncc(Cl)cc4[nH]3)C(c3ccco3)C2)cc1` (stereo unspecified), for which the cell number change is 80.4%. The AC50 under setting [2] is 14.6 µM [rising, single point].
Consider `O=C(Nc1ccc(F)cc1F)NC1CCCCCCC1`, for which the cell number change was determined as 2.31%. For the same molecule, the concentration at half-maximal activity (AC50) under setting [1] is 3.26 µM [rising, single point].
For the molecule `CCC(C)n1cnc2c(c1=O)c1nc3ccccc3nc1n2Cc1ccccc1OC` (stereo unspecified), the cell number change is 8.46%. The concentration at half-maximal activity (AC50) under setting [1] is 0.82 µM [rising, full curve].
For `COc1ccc(-n2c(=O)c(CCC(=O)NCCc3ccccc3F)nc3ccccc32)cc1`, under setting [1], the half-maximal activity concentration (AC50) is 5.8 µM [falling, partial curve].
For `O=C(NCC1CCCO1)C1CCC(=O)N1Cc1ccc(F)cc1` (stereo unspecified), the cell number change turned out to be 30.5%. The half-maximal activity concentration (AC50) under setting [2] was 23.1 µM [rising, single point].
With `CCOC(=O)C(C(=O)OCC)C1OC(=O)c2cc3c(cc21)C(=O)OC3C(C(=O)OCC)C(=O)OCC` (stereo unspecified), the cell number change was -10.1%. In addition, the AC50 under setting [1] was 0.206 µM [falling, full curve].
As for `Cc1cc(Cl)c(OCCCn2ccnc2)c(Br)c1`, the AC50 under setting [1] is 2.59 µM [rising, partial curve].
Turning to `COc1ccc(-c2cc(C(F)(F)F)nc(N3CCCCC3)n2)cc1OC`, the cell number change is -4.46%. Moreover, the AC50 under setting [2] was 0.92 µM [rising, full curve, poor fit].
For the molecule `O=C(Nc1ccon1)c1sc2cc(Cl)ccc2c1Cl`, the cell number change turned out to be 3.78%. Further, the AC50 under setting [1] is 29.1 µM [falling, single point].
Regarding `COc1cc(C)c(Br)cc1S(=O)(=O)N1CCCC1`, the cell number change was 1.42%. Moreover, the AC50 under setting [1] was 0.164 µM [falling, full curve, poor fit].
On to `CCN(CC)S(=O)(=O)c1ccc(N=Nc2c(C)[nH]n(C(N)=S)c2=O)cc1`, for which the cell number change is -51.9%. For the same molecule, under setting [2], the half-maximal activity concentration (AC50) was 25.9 µM [falling, partial curve, poor fit]. Further, the half-maximal activity concentration (AC50) under setting [1] is 13 µM [falling, partial curve].
In the case of `CC(=O)C1=C(C)NC(SCC(N)=O)=C(C#N)C1C` (stereo unspecified), the cell number change was -17.8%. Further, the half-maximal activity concentration (AC50) under setting [1] was 6.51 µM [rising, single point].
For `COc1ccc(C=NCC2OCCc3ccccc32)cc1OC` (stereo unspecified), the cell number change was 75%. Also, the AC50 under setting [2] was 29.1 µM [rising, single point]. Also, the concentration at half-maximal activity (AC50) under setting [1] was 0.82 µM [falling, single point].
